# Test results published in the supplement of paper PMC8728848.
# The list shows a part of the results.
# Tests used:
# Assay in all cases: glycan array binding signal (z-score within array); higher = stronger binding
# Details in all cases: glycan notation: IUPAC condensed, linker removed
# [1] = target: Man(a1-2)Man(a1-3)[Man(a1-2)Man(a1-6)]Man(a1-6)[Man(a1-2)Man(a1-2)Man(a1-3)]Man
# In short: (§1)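 Negative Z-scores can be read as non-binding. The Z-score is calculated within each array and then averaged across arrays of one protein sequence at different concentrations or buffers and across linkers. Arrays, 3228 in all, were curated from the Consortium for Functional Glycomics database and kept only where the protein sequence was available.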
# [2] = target: Man(a1-2)Man(a1-3)[Man(a1-2)Man(a1-6)]Man(a1-6)[Man(a1-2)Man(a1-2)Man(a1-3)]Man(b1-4)GlcNAc(b1-4)GlcNAc
# In short: as §1
# [3] = target: Man(a1-2)Man(a1-3)[Man(a1-6)]Man(a1-6)[Man(a1-2)Man(a1-3)]Man(b1-4)GlcNAc(b1-4)GlcNAc
# In short: as §1
# [4] = target: Man(a1-2)Man(a1-6)[Man(a1-3)]Man(a1-6)[Man(a1-2)Man(a1-2)Man(a1-3)]Man
# In short: as §1
# [5] = target: Man(a1-2)Man(a1-6)[Man(a1-3)]Man(a1-6)[Man(a1-2)Man(a1-2)Man(a1-3)]Man(b1-4)GlcNAc(b1-4)GlcNAc
# In short: as §1
# Man(a1-3)[Man(a1-6)]Man = target: Man(a1-3)[Man(a1-6)]Man
# In short: as §1
# [6] = target: Man(a1-3)[Man(a1-6)]Man(a1-6)[Man(a1-2)Man(a1-3)]Man(b1-4)GlcNAc(b1-4)GlcNAc
# In short: as §1
# [7] = target: Man(a1-3)[Man(a1-6)]Man(a1-6)[Man(a1-3)]Man
# In short: as §1
# [8] = target: Man(a1-3)[Man(a1-6)]Man(a1-6)[Man(a1-3)]Man(b1-4)GlcNAc(b1-4)GlcNAc
# In short: as §1
# [9] = target: Man(a1-3)[Man(a1-6)]Man(b1-4)GlcNAc(b1-4)GlcNAc
# In short: as §1
# [10] = target: Man(a1-3)[Man(a1-6)]Man(b1-4)GlcNAc(b1-4)[Fuc(a1-6)]GlcNAc
# In short: as §1
# Man(a1-6)Man = target: Man(a1-6)Man
# In short: as §1
# Man(b1-4)GlcNAc = target: Man(b1-4)GlcNAc
# In short: as §1
# MurNAc(b1-4)GlcNAc = target: MurNAc(b1-4)GlcNAc
# In short: as §1
# Neu5Ac(a2-3)Gal = target: Neu5Ac(a2-3)Gal
# In short: as §1
# [11] = target: Neu5Ac(a2-3)Gal(b1-3)GalNAc
# In short: as §1
# [12] = target: Neu5Ac(a2-3)Gal(b1-3)GalNAc(b1-3)Gal(a1-4)Gal(b1-4)Glc
# In short: as §1
# [13] = target: Neu5Ac(a2-3)Gal(b1-3)GalNAc(b1-4)[Neu5Ac(a2-3)]Gal(b1-4)Glc
# In short: as §1
# [14] = target: Neu5Ac(a2-3)Gal(b1-3)GalNAc(b1-4)[Neu5Ac(a2-8)Neu5Ac(a2-3)]Gal(b1-4)Glc
# In short: as §1
# [15] = target: Neu5Ac(a2-3)Gal(b1-3)GalNAc6S
# In short: as §1
# [16] = target: Neu5Ac(a2-3)Gal(b1-3)GlcNAc
# In short: as §1
# [17] = target: Neu5Ac(a2-3)Gal(b1-3)GlcNAc(b1-2)Man
# In short: as §1
# [18] = target: Neu5Ac(a2-3)Gal(b1-3)GlcNAc(b1-2)Man(a1-3)[GlcNAc(b1-4)][Neu5Ac(a2-3)Gal(b1-3)GlcNAc(b1-2)Man(a1-6)]Man(b1-4)GlcNAc(b1-4)GlcNAc
# In short: as §1
# [19] = target: Neu5Ac(a2-3)Gal(b1-3)GlcNAc(b1-2)Man(a1-3)[Neu5Ac(a2-3)Gal(b1-3)GlcNAc(b1-2)Man(a1-6)]Man(b1-4)GlcNAc(b1-4)GlcNAc
# In short: as §1
# [20] = target: Neu5Ac(a2-3)Gal(b1-3)GlcNAc(b1-3)Gal(b1-3)GlcNAc
# In short: as §1
# [21] = target: Neu5Ac(a2-3)Gal(b1-3)GlcNAc(b1-3)Gal(b1-4)GlcNAc
# In short: as §1
# [22] = target: Neu5Ac(a2-3)Gal(b1-3)GlcNAc(b1-3)GalNAc
# In short: as §1
# [23] = target: Neu5Ac(a2-3)Gal(b1-3)GlcNAc(b1-4)Gal(b1-4)Glc
# In short: as §1
# [24] = target: Neu5Ac(a2-3)Gal(b1-3)GlcNAc(b1-6)GalNAc
# In short: as §1
# [25] = target: Neu5Ac(a2-3)Gal(b1-3)GlcNAc6S
# In short: as §1
# [26] = target: Neu5Ac(a2-3)Gal(b1-3)[Fuc(a1-4)]GlcNAc
# In short: as §1
# [27] = target: Neu5Ac(a2-3)Gal(b1-3)[Fuc(a1-4)]GlcNAc(b1-3)Gal(b1-3)[Fuc(a1-4)]GlcNAc
# In short: as §1
# [28] = target: Neu5Ac(a2-3)Gal(b1-3)[Fuc(a1-4)]GlcNAc(b1-3)Gal(b1-4)[Fuc(a1-3)]GlcNAc
# In short: as §1
# [29] = target: Neu5Ac(a2-3)Gal(b1-3)[GlcNAc(b1-6)]GalNAc
# In short: as §1
# [30] = target: Neu5Ac(a2-3)Gal(b1-3)[Neu5Ac(a2-6)]GalNAc
# In short: as §1
# [31] = target: Neu5Ac(a2-3)Gal(b1-3)[Neu5Ac(a2-6)]GlcNAc(b1-3)[Fuc(a1-3)[Gal(b1-4)]GlcNAc(b1-6)]Gal(b1-4)Glc
# In short: as §1
# [32] = target: Neu5Ac(a2-3)Gal(b1-3)]Neu5Ac(a2-3)Gal(b1-4)]GlcNAc
# In short: as §1
binder,measurement,setting,value
PX14343C-bfa-541-26-541 (Bacteroides fragilis) (protein) KAPLDEIADDSFWSDETLVKYYVNDLYSEISVDGLQLQENRSDNSVSAQRDKYRASWFKFNYDMVSASDPQDDDVWEDYYVKVRKCNRFFERIGTSTIEESEKSRLTGEVHFLRAMFYFEMVKRYGGVILLDKVLTMEDNWEIPRSSEKECYDFILEDLKKATEMLPASYGSREKGRATKGAAYALKSRVELYDKRYEDVIKSCAEVYKLGYELVDGTTPEKYRSIWWTTNKDNKEIIFDVQYKSPDVYNNMMVCNMVTYINDKYGDRGWGGLGPTQELIDAFEMADGTPATQYSQAPADQVFDINTCGIYEGREPRFYANIVFHGSQIFFNADKGAVTVDRYLMDTPDKGDGSLTGYNVWKWIDYDNYNYPYAGAGSPDFSTNWIILRYAEIYLNDAEARLETGDVEGARKAVNMIRQRVGLPDLTESDPEKLRELIRKERRIEFAFEEQRFYDVRRWKIGPETQTTLHGVRFVSPTEFKVTKTDIRTWNDRLYLTPVPHDEIVRSSVLKQNLGY,glycan array binding signal (z-score),[1],-0.595
same,glycan array binding signal (z-score),[2],0.285
same,glycan array binding signal (z-score),[3],0.476
same,glycan array binding signal (z-score),[4],-0.799
same,glycan array binding signal (z-score),[5],-0.535
same,glycan array binding signal (z-score),Man(a1-3)[Man(a1-6)]Man,-0.524
same,glycan array binding signal (z-score),[6],0.931
same,glycan array binding signal (z-score),[7],0.127
same,glycan array binding signal (z-score),[8],-0.482
same,glycan array binding signal (z-score),[9],-0.046
same,glycan array binding signal (z-score),[10],-0.814
same,glycan array binding signal (z-score),Man(a1-6)Man,0.137
same,glycan array binding signal (z-score),Man(b1-4)GlcNAc,-0.535
same,glycan array binding signal (z-score),MurNAc(b1-4)GlcNAc,-0.32
same,glycan array binding signal (z-score),Neu5Ac(a2-3)Gal,-0.737
same,glycan array binding signal (z-score),[11],-0.143
same,glycan array binding signal (z-score),[12],0.978
same,glycan array binding signal (z-score),[13],0.2
same,glycan array binding signal (z-score),[14],-1.04
same,glycan array binding signal (z-score),[15],-0.571
same,glycan array binding signal (z-score),[16],-0.292
same,glycan array binding signal (z-score),[17],-0.541
same,glycan array binding signal (z-score),[18],-0.943
same,glycan array binding signal (z-score),[19],-0.219
same,glycan array binding signal (z-score),[20],-0.527
same,glycan array binding signal (z-score),[21],-0.242
same,glycan array binding signal (z-score),[22],0.246
same,glycan array binding signal (z-score),[23],-0.563
same,glycan array binding signal (z-score),[24],-0.782
same,glycan array binding signal (z-score),[25],0.836
same,glycan array binding signal (z-score),[26],-0.591
same,glycan array binding signal (z-score),[27],0.555
same,glycan array binding signal (z-score),[28],-0.671
same,glycan array binding signal (z-score),[29],-0.831
same,glycan array binding signal (z-score),[30],0.409
same,glycan array binding signal (z-score),[31],-0.747
same,glycan array binding signal (z-score),[32],-0.364

# Pulled one by one from above:
binder,measurement,setting,value
PX14343C-bfa-541-26-541 (Bacteroides fragilis) (protein) KAPLDEIADDSFWSDETLVKYYVNDLYSEISVDGLQLQENRSDNSVSAQRDKYRASWFKFNYDMVSASDPQDDDVWEDYYVKVRKCNRFFERIGTSTIEESEKSRLTGEVHFLRAMFYFEMVKRYGGVILLDKVLTMEDNWEIPRSSEKECYDFILEDLKKATEMLPASYGSREKGRATKGAAYALKSRVELYDKRYEDVIKSCAEVYKLGYELVDGTTPEKYRSIWWTTNKDNKEIIFDVQYKSPDVYNNMMVCNMVTYINDKYGDRGWGGLGPTQELIDAFEMADGTPATQYSQAPADQVFDINTCGIYEGREPRFYANIVFHGSQIFFNADKGAVTVDRYLMDTPDKGDGSLTGYNVWKWIDYDNYNYPYAGAGSPDFSTNWIILRYAEIYLNDAEARLETGDVEGARKAVNMIRQRVGLPDLTESDPEKLRELIRKERRIEFAFEEQRFYDVRRWKIGPETQTTLHGVRFVSPTEFKVTKTDIRTWNDRLYLTPVPHDEIVRSSVLKQNLGY,glycan array binding signal (z-score),[13],0.2
same,glycan array binding signal (z-score),[6],0.931
same,glycan array binding signal (z-score),[26],-0.591
